From PubChem BioAssay AID296 (DTP/NCI, 2004)
The list does not hold the whole screen: it is rich in T/C values a quarter to a half above the control, in often repeated tests (any T/C) and in doses without a T/C. Further doses and runs are listed elsewhere. T/C is the treated group as % of the vehicle group. Schedules are NCI's codes, read here as Q, the interval in days (D) or hours (H), X, the number of doses. Some entries hold several experiments; the values are given in rising order. Some doses have a count of surviving animals in place of a T/C: the source files T/C as zero there, which appears to mark a toxic dose or a test without result, not a measured value. Survivors were counted at the toxicity check, usually on the fifth day, unless a day is given; later deaths do not show.

Tested on: MX-1 breast xenograft, nude mice, tumor weight T/C
Test: NCI In Vivo Anticancer Drug Screen. Data for tumor model Human Mammary Carcinoma MX-1 Xenograft (intrarenal inoculation) in NU/NU Swiss (nude) mice
Details: T/C endpoint: mean tumor weight change, higher T/C = larger tumour; for T/C: evaluated on day 11
In short: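 Antitumour effect measured in vivo against vehicle controls, expressed as T/C.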

[1] = dose: 600.0 mg/kg/injection, schedule: Q04DX003 (sc), vehicle: saline with Tween-80
[2] = dose: 800.0 mg/kg/injection, schedule: Q01DX010 (sc), vehicle: saline with Tween-80

With `NC(=O)c1[nH]nc(C2OC(CO)C(O)C2O)c1O` (stereo unspecified) the survivor count (dose: 20.0 mg/kg/injection, schedule: Q04DX003 (sc), vehicle: saline) was 2 of 6 on day 11 and the survivor count (dose: 40.0 mg/kg/injection, schedule: Q04DX003 (sc), vehicle: saline) was 0 of 6 on day 11.

With `COC(=O)c1ccoc1` the survivor count (dose: 1200.0 mg/kg/injection, schedule: Q04DX003 (sc), vehicle: saline) was 0 of 6 on day 11.

`CN(Cc1cnc2nc(N)nc(N)c2n1)c1ccc(C(=O)N[C@@H](CCC(=O)O)C(=O)O)cc1` was tested, and the survivor count (dose: 2.0 mg/kg/injection, schedule: Q01DX010 (sc), vehicle: sodium bicarbonate) was 0 of 3 on day 11, the T/C (dose: 3.0 mg/kg/injection, schedule: Q04DX003 (sc), vehicle: sodium bicarbonate) was 87, 112, 114, 128 % of control and the survivor count (dose: 4.0 mg/kg/injection, schedule: Q01DX010 (sc), vehicle: sodium bicarbonate) was 0 of 3 on day 11. The T/C (dose: 6.0 mg/kg/injection, schedule: Q04DX003 (sc), vehicle: sodium bicarbonate) was 40, 70, 115, 131 % of control, the T/C (dose: 12.0 mg/kg/injection, schedule: Q04DX003 (sc), vehicle: sodium bicarbonate) was 42, 51, 72, 118 % of control and the T/C (dose: 24.0 mg/kg/injection, schedule: Q04DX003 (sc), vehicle: sodium bicarbonate) was 28, 30, 41, 82 % of control. For the same compound, the survivor count (dose: 25.0 mg/kg/injection, schedule: Q01DX010 (sc), vehicle: sodium bicarbonate) was 0 of 3 on day 11, the survivor count (dose: 50.0 mg/kg/injection, schedule: Q01DX010 (sc), vehicle: sodium bicarbonate) was 0 of 3 on day 11 and the survivor count (dose: 100.0 mg/kg/injection, schedule: Q01DX010 (sc), vehicle: sodium bicarbonate) was 0 of 3 on day 11. For the same compound, the survivor count (dose: 200.0 mg/kg/injection, schedule: Q01DX010 (sc), vehicle: sodium bicarbonate) was 0 of 3 on day 11.

For `O=C1NCC(Br)C(=O)N1` (stereo unspecified), the T/C (dose: 300.0 mg/kg/injection, schedule: Q04DX003 (sc), vehicle: saline with Tween-80) was 125 % of control, the survivor count [1] was 1 of 6 on day 11 and the survivor count (dose: 1200.0 mg/kg/injection, schedule: Q04DX003 (sc), vehicle: saline with Tween-80) was 0 of 6 on day 11.

With `COC1N(C2CC(O)C(CO)O2)C(=O)NC(=O)C1(F)Br` (stereo unspecified) the T/C (dose: 25.0 mg/kg/injection, schedule: Q01DX010 (sc), vehicle: saline) was 133 % of control, the survivor count (dose: 50.0 mg/kg/injection, schedule: Q01DX010 (sc), vehicle: saline) was 0 of 3 on day 11 and the survivor count (dose: 100.0 mg/kg/injection, schedule: Q01DX010 (sc), vehicle: saline) was 0 of 3 on day 11.

With `O=C1C=C[C@H](O)[C@@]2(CO)O[C@@H]12` the survivor count (dose: 12.5 mg/kg/injection, schedule: Q04DX003 (sc), vehicle: saline with Tween-80) was 1 of 5 on day 11 and the survivor count (dose: 25.0 mg/kg/injection, schedule: Q04DX003 (sc), vehicle: saline with Tween-80) was 0 of 6 on day 11.

With `C/C=C/c1cc2n(c1)C(=O)c1cc(OC3OC(C)C(NC)C(C)(O)C3O)c(C)c(O)c1NC2O` (stereo unspecified) the T/C (dose: 800.0 micrograms/kg/injection, schedule: Q04DX003 (sc), vehicle: saline) was 137 % of control.

With `C=C1C(C)C2C(Cc3ccccc3)NC(=O)C23C(OC(C)=O)C=CC(C)(O)C(=O)C(C)C/C=C/C3C1O` (stereo unspecified) the survivor count (dose: 30.0 mg/kg/injection, schedule: Q04DX003 (sc), vehicle: Klucel (hydroxypropylcellulose) (HPC)) was 1 of 6 on day 11.

For `C=C1C(=O)OCC2C(C(=O)O)=CC3C(C)C(C)=CC123` (stereo unspecified), the T/C (dose: 3.13 mg/kg/injection, schedule: Q01DX010 (sc), vehicle: Klucel (hydroxypropylcellulose) (HPC)) was 128 % of control and the T/C (dose: 25.0 mg/kg/injection, schedule: Q01DX010 (sc), vehicle: Klucel (hydroxypropylcellulose) (HPC)) was 144 % of control.

For `N#Cc1c(-c2ccc(F)cc2)c(-c2ccc(F)cc2)nn(CCO)c1=O`, the survivor count (dose: 400.0 mg/kg/injection, schedule: Q04DX003 (ip), vehicle: distilled water + Tween-80) was 3 of 6 on day 11 and the survivor count (dose: 800.0 mg/kg/injection, schedule: Q04DX003 (ip), vehicle: distilled water + Tween-80) was 2 of 6 on day 11.

With `O=S(=O)(SC(S(=O)(=O)c1ccccc1)S(=O)(=O)c1ccccc1)c1ccccc1` the T/C (dose: 1200.0 mg/kg/injection, schedule: Q04DX003 (sc), vehicle: Klucel (hydroxypropylcellulose) (HPC)) was 128 % of control.

For `CC[C@](C)(O)C(=O)O[C@H]1C(=O)O[C@@H]2C[C@H]3C(C)=CC(=O)[C@@H](O)[C@]3(C)[C@H]3[C@@]4(O)OC[C@]32[C@@H]1[C@@H](C)[C@H]4O`, the survivor count (dose: 1.0 mg/kg/injection, schedule: Q01DX010 (sc), vehicle: Klucel (hydroxypropylcellulose) (HPC)) was 3 of 6 on day 11 and the survivor count (dose: 2.0 mg/kg/injection, schedule: Q01DX010 (sc), vehicle: Klucel (hydroxypropylcellulose) (HPC)) was 0 of 3 on day 11, 2 of 6 on day 11, 3 of 6 on day 11.

With `CSCS(=O)C[C@H](CO)NC(=O)/C=C/c1c(C)[nH]c(=O)[nH]c1=O` (stereo partly specified) the T/C (dose: 1.5 mg/kg/injection, schedule: Q04DX003 (sc), vehicle: saline) was 126 % of control and the survivor count (dose: 3.0 mg/kg/injection, schedule: Q04DX003 (sc), vehicle: saline) was 1 of 6 on day 11.

For `CCOC(=O)c1ccc(NC(=O)Nc2nccs2)cc1`, the survivor count (dose: 50.0 mg/kg/injection, schedule: Q01DX010 (sc), vehicle: saline with Tween-80) was 1 of 3 on day 11, the T/C (dose: 200.0 mg/kg/injection, schedule: Q01DX010 (sc), vehicle: saline with Tween-80) was 126 % of control and the T/C [2] was 134 % of control.

`Cc1cc(NCCN(C(C)C)C(C)C)nc(/N=C(\N)Nc2ccc(Cl)c(C(F)(F)F)c2)n1` was tested, and the survivor count (dose: 640.0 mg/kg/injection, schedule: Q04DX003 (sc), vehicle: Klucel (hydroxypropylcellulose) (HPC)) was 3 of 6 on day 11.

With `O=C(O)CSc1nc(-c2ccccc2)c(-c2ccccc2)n1-c1ccccn1` the survivor count (dose: 25.0 mg/kg/injection, schedule: Q01DX010 (sc), vehicle: water) was 0 of 3 on day 11.

For `CCCCCCCCCCCCCCCC(=O)Nc1ccn(C2OC(CO)C(O)C2O)c(=O)n1` (stereo unspecified), the survivor count (dose: 600.0 mg/kg/injection, schedule: Q04DX003 (sc), vehicle: water) was 3 of 6 on day 11, the survivor count (dose: 1200.0 mg/kg/injection, schedule: Q04DX003 (sc), vehicle: water) was 0 of 6 on day 11 and the survivor count (dose: 2400.0 mg/kg/injection, schedule: Q04DX003 (sc), vehicle: water) was 0 of 6 on day 11.

In the case of `O=c1nc(Oc2ccccc2)nc2ncccn12`, the survivor count (dose: 400.0 mg/kg/injection, schedule: Q01DX010 (sc), vehicle: saline with Tween-80) is reported as 1 of 3 on day 11 and the survivor count [2] is reported as 0 of 3 on day 11.

`C[n+]1c(-c2cccc3ccccc23)c2cc(N)ccc2c2ccccc21` was tested, and the T/C (dose: 24.0 mg/kg/injection, schedule: Q04DX003 (sc), vehicle: saline) was 137 % of control and the survivor count (dose: 96.0 mg/kg/injection, schedule: Q04DX003 (sc), vehicle: saline) was 0 of 6 on day 11.

With `FC(F)(F)c1nc2nc(Cl)c(Cl)nc2[nH]1` the survivor count [1] was 0 of 6 on day 11.

`COc1ccc(/C=C/C(=O)c2cc(C(=O)O)c(OC)cc2OC)cc1OC` was tested, and the T/C (dose: 600.0 mg/kg/injection, schedule: Q04DX003 (sc), vehicle: suspension in saline) was 134 % of control, the T/C (dose: 1200.0 mg/kg/injection, schedule: Q04DX003 (sc), vehicle: suspension in saline) was 127 % of control and the T/C (dose: 2400.0 mg/kg/injection, schedule: Q04DX003 (sc), vehicle: suspension in saline) was 126 % of control.

In the case of `C/C=C1\C[C@@H]2C(OC)Nc3cc(O)c(OC)cc3C(=O)N2C1` (stereo partly specified), the survivor count (dose: 8.0 mg/kg/injection, schedule: Q04DX003 (sc), vehicle: suspension in saline) is reported as 3 of 6 on day 11, the survivor count (dose: 16.0 mg/kg/injection, schedule: Q04DX003 (sc), vehicle: saline) is reported as 0 of 6 on day 11 and the survivor count (dose: 16.0 mg/kg/injection, schedule: Q04DX003 (sc), vehicle: suspension in saline) is reported as 0 of 6 on day 11 and 2 of 6 on day 11.
